Test results taken from patent US9107879B1, “Methods of increasing the cytotoxicity of chemotherapeutic agents with multisubstrate inhibitors of histone, protein-lys, polyamine acetylation, and polyamine metabolism” (Vanderbilt University, priority 2010, dated 2015).
“Also recorded” adds a separate entry of the source. Where two headings read alike, the source gives them in different places. At least one structure is not confirmed: it was looked up by name or label, or the drawing left a doubt.

Columns and labels:
H358 lung cancer cells = test: [3H]-thymidine incorporation DNA synthesis assay; format: cell-based
Protocol: (A) Structures of 1a, and the acetylated side chain of a lysine residue within the polypeptide chain of a protein targeted by the acetylating enzyme (R1 and R2 are the main chain elements on both sides of the lysyl residue). (B) [^3H]-thymidine incorporation into DNA of H358 cells pulsed for 6 hrs at three different time points after the addition of increasing concentrations of 1a, i.e., at 6-12 hrs (12 hr curve), at 18-24 hours (24 hr curve), or at 42-48 hrs (48 hr curve). Incorporation is represented as a percentage relative to control (untreated) cells. (C) Cell cycle analysis of propidium iodide-stained cells harvested at various times after addition of 50 μM 1a. % of cells in G1, S, and G2 represents the average of two independent profiles. (D) Western analysis of histone H3 lysine 9 acetylation, histone H3 lysine 56 acetylation, histone H3 lysine 9 methylation, and total histone H3, before “c” or at the indicated times after addition of 50 μM 1a. Each lane represents 60 μg cellular protein.
Control cells were left untreated. […] Control cells were left untreated.
Cells were either labeled immediately before treatment (starting DNA synthesis rate), or subjected to the indicated treatments and then pulsed on successive days until day 4. DNA synthesis is represented as the percent of starting DNA synthesis rate. Viability was determined for each treatment condition 24 hours post-start of treatment by the trypan blue exclusion assay, with percentages of viable cells indicated to the right of the graph.
H358 cells (2,000/well) in 96-well plates were treated with 1, 10 or 50 μM of spd-1a, spd-2a, spd-3a, spm3, or spm2 for 12 hours. Triplicate wells of cells were pulsed 6 hours with 0.5 μCi [^3H]-thymidine (NEN, Boston Mass.) post-start of drug treatment, and harvested onto filter paper using a Brandel Harvester and subjected to scintillation counting. Untreated cells were pulsed 0-6 hrs to establish the initial rate of incorporation. […]

[1] = system: normal human fibroblasts or epithelial cells; test: sensitization of normal cells; format: cell-based; conditions: unpermeabilized cells
MCF7 breast cancer cells = conditions: for 3-day / 72 hr cell viability, single agent: DFMO 100 μM, 5FU 2 μM 18 hrs, doxorubicin 100 nM 18 hr, spd-2a with no siRNA or control siRNA
Protocol: (A) [^3H]-thymidine incorporation into DNA of H358 cells (left panel) or MCF-7 cells (right panel) during a 6 hour pulse ending at the indicated time points after initiation of treatment. Treatments were 50 μM 1a alone, 5 nM camptothecin alone (CPT, 18 hours), 50 μM 1a+5 nm CPT (18 hours). Control cells were left untreated. (B) 2-day 96-well viability assays of H358 cells (left panel) or MCF-7 cells (right panel) grown in presence of increasing concentrations of 1a (continuous), with or without an 18-hour treatment with 5 nM camptothecin (CPT). Cell viability, represented as a percent of untreated cell viability (i.e., no 1a, no CPT), was determined 2 days post-start of treatment by the MTS bioconversion assay (MTS=(3-(4,5′-dimethylthiazol-2-yl)-5-(3-carboxymethoxylphenyl-2-(4-sulfophenyl)-2H-tetrazolium salt). Each data point represents the average of triplicate wells. Assays were carried out under conditions such that untreated cells remained in exponential growth. (C) [^3H]-thymidine incorporation into DNA of H358 cells carried out as in part “A”. Treatment consisted of 1a alone (50 μM), or cisplatin (2 μM, 1 hour, 15 minutes) alone or together with 1a (Panel 1); or UVC (40 J/m^2), alone or together with 1a (Panel 2); or 5-fluorouracil (5FU, 2 μM, 18 hours) alone or together with 1a (Panel 3), or Taxotere™ (5 nM, 18 hours), alone or together with 1a (Panel 4). Control cells were left untreated. Symbols are as follows: (-◯-) untreated control; (-●-) 50 μM 1a, (-∇-) drug or UVC alone; (-▾-) combination 1a+drug or UVC.
Viability was measured 3 days after the start of treatment and is expressed as a percentage of control (untreated) cell viability.
Each point is average of triplicates.
Date of exp: 7-17-2010; located p.21 in Hat notebook: KB-2 (2010-2011).
Cells were plated in 96-well plates (3000 cells per well) and incubated 18 hours with or without 5 nM camptothecin (Sigma, St Louis, Mo.). […] 2-day viability was determined by the MTS assay as previously (Saadatmandi et al., 2002, Cancer Gene Therapy, 9: 830-9) and expressed as a percentage of control cell viability. […]

## CC(C)(COP(=O)(O)OP(=O)(O)OC[C@H]1O[C@@H](n2cnc3c(N)ncnc32)[C@H](O)[C@@H]1OP(=O)(O)O)[C@@H](O)C(=O)NCCC(=O)NCCSCC(=O)NCCCNCCCCN [1a, spermidine[N1]-CoA]
H358 lung cancer cells; 50 μM 1a + Taxotere 5 nM, 18 hours
  sensitization to Taxotere in DNA synthesis assay: not to Taxotere
H358 lung cancer cells; 1a 50 μM, camptothecin 5 nM (18 or 24 h)
  effect on [3H]-thymidine incorporation, single agent: transient inhibition of DNA synthesis; also recorded: transient arrest of DNA synthesis
H358 lung cancer cells; data not shown
  inhibitory activity against DNA synthesis in vivo, isomers compared: comparable inhibitory activity
[1]
  sensitization effect on normal cells: neither spd-1a nor spd-2a had any sensitization effect
MCF7 breast cancer cells; 1a increasing concentrations, camptothecin 5 nM 18 hour
  2-day cumulative cell viability relative to untreated, single agent: little effect
MCF7 breast cancer cells
  3-day / 72 hr cell viability, single agent: minimal effects on cell viability
MCF7 breast cancer cells; listed as spd-1a
  3-day / 72 hr cell viability, single agent: little effect
